Measured values from article PMC12647202.
No constants are given. Whether binding was seen depends on the method and setting. In cells and extracts the contact can be indirect. A yes stands for co-enrichment or nearness to the bait. Other partners may have been found. A no says only that the protein was not detected with the bait. Sequences can lack the tags named with a protein.

Target: T1, homolog of methionine γ-lyase (MGL) encoded by synpcc7942_2562, triple-FLAG-tagged (Synechococcus elongatus sp. PCC 7942) (UniProt Q54763)
T1 sequence: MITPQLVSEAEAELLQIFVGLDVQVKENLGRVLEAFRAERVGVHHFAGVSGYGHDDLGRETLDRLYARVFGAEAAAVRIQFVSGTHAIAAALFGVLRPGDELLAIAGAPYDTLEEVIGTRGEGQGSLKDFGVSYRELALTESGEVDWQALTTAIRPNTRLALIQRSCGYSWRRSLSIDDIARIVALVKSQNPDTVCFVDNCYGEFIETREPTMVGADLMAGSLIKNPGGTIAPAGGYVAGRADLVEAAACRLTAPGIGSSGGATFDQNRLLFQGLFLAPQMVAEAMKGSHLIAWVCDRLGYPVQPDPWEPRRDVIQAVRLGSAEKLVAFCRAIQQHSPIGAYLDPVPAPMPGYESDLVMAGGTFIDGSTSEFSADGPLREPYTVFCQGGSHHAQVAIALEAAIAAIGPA
Assay: affinity purification with mass spectrometry; lysate of S. elongatus strain 2562::Tn5/2562::FLAG on anti-FLAG magnetic beads, 2 h at room temperature and overnight at 4 °C; eluted with 100 µM triple-FLAG peptide; non-tagged strain 2562::Tn5/2562 as negative control; three independent biological repetitions; hits at fold ≥ 2, p value ≤ 0.05

Row | Substance | binding
1 | translation initiation factor IF-1 | binds
2 | 23 S rRNA (Uracil-5-)- methyltransferase (enzyme) | binds
3 | EbsA (essential for biofilm suppression) | no binding
